Data reported in patent publication US5691311A (Biogen, Inc., priority 1995, dated 1997).
Not every detail of the peptide structures is certain; ends, links or a residue may be inferred. Some entries repeat one wording, which the source may state once for all of them. Where a SMILES comes first, the peptide text is derived from it. [ ]: non-standard residue; d: D form.

Legend:
human α-thrombin [1] = target: T1, human α-thrombin (Homo sapiens, UniProt P00734); assay: Cleavage of Hirulogs by thrombin (chromogenic and HPLC assays); assay type: biochemical; details: for kcat: turnover rate of Hirulog hydrolysis by thrombin
T1 construct: proteolysis of the B-chain of α-thrombin; human α-thrombin-catalyzed hydrolysis of Spectrozyme TH
Method: Aliquots (0.975 ml) of the reaction mixtures were removed at various times and mixed in a cuvette with 0.025 ml Spectrozyme TH (11 μM final concentration), a chromogenic substrate. The initial rate of reaction was determined and, based on control mixtures containing thrombin in the absence of Hirulog, the % inhibition was calculated.
An alternate method employed reverse-phase HPLC separation of aliquots from a Hirulog/thrombin reaction mixture. In this assay we added human α-thrombin (0.25 μM final concentrations) to a reaction vessel containing one of the above Hirulogs (12.5 μM final concentration). Aliquots (50 μl) were removed both prior to and at various times following the addition of thrombin. The aliquots were either flash frozen of injected directly onto the HPLC column. The HPLC system employed an Applied Biosystems Liquid Chromatography System equipped with an Aquapore C, column (0.46×10 cm). The column was equilibrated in 70% solvent A (0.1% TFA in water) and 30% solvent B (0.085% TFA/70% acetonitrile) and developed with a linear gradient of from 30 to 50% solvent B over 30 minutes at a flow rate of 1 ml/minute. The effluent stream was monitored at 214 nm. Peptide concentrations were determined by measurement of peak heights.
Both of the above-described assays allow determination of the rate of Hirulog hydrolysis by thrombin (expressed in M/min) and turnover rate (kcat; expressed in min^-1).

human α-thrombin [2] = target: T1, human α-thrombin; assay: Thrombin-catalyzed hydrolysis of Spectrozyme TH; assay type: biochemical
Method: The thrombin-catalyzed rate was monitored in a Cary 19 spectrophotometer at 405 nm and recorded continuously as a function of time. Kinetics were performed at room temperature (25°±1°C.) in a 0.05M Tris, pH 7.5, 0.1M NaCl buffer.
For a typical enzyme reaction, 1.0 ml of buffer was added to both the sample and reference cuvettes. […] Immediately following addition of substrate, the contents of the sample cuvette were mixed by use of a plastic pipette. The reaction was monitored spectrophotometrically for 5-15 minutes.
Initial rate velocities at each substrate concentration were expressed as moles Spectrozyme TH hydrolyzed/sec/mole thrombin. This was determined during the initial linear phase of the reaction (≤15% total hydrolysis of substrate) by measuring the slope of the hydrolytic reaction. Lineweaver-Burke plots were constructed accordingly, by plotting the inverse of the initial velocity against the inverse of the substrate concentration.

| Structure (SMILES) | susceptibility to thrombin cleavage (human α-thrombin [1]) | kcat (human α-thrombin [1]) [s⁻¹] | inhibition of thrombin-catalyzed hydrolysis of Spectrozyme TH (in words) (human α-thrombin [2]) | effect on thrombin-catalyzed rate at fixed peptide concentration (human α-thrombin [2]; Hirulog-8 50 nM, pentapeptide 10 μM) |
| --- | --- | --- | --- | --- |
| CC[C@H](C)[C@H](NC(=O)[C@H](CCC(=O)O)NC(=O)[C@H](CCC(=O)O)NC(=O)[C@H](Cc1ccccc1)NC(=O)[C@H](CC(=O)O)NC(=O)CNC(=O)[C@H](CC(N)=O)NC(=O)CNC(=O)CNC(=O)CNC(=O)CNC(=O)CNC(=O)C[C@H](CCCNC(=N)N)NC(=O)[C@@H]1CCCN1C(=O)[C@H](N)Cc1ccccc1)C(=O)N1CCC[C@H]1C(=O)N[C@@H](CCC(=O)O)C(=O)N[C@@H](CCC(=O)O)C(=O)N[C@@H](Cc1ccc(O)cc1)C(=O)N[C@@H](CC(C)C)C(=O)O [Hirulog-18a] | resistant to thrombin cleavage | < 0.00017 | – | – |
| CC[C@H](C)[C@H](NC(=O)[C@H](CCC(=O)O)NC(=O)[C@H](CCC(=O)O)NC(=O)[C@H](Cc1ccccc1)NC(=O)[C@H](CC(=O)O)NC(=O)CNC(=O)[C@H](CC(N)=O)NC(=O)CNC(=O)CNC(=O)CNC(=O)CNC(=O)CNC[C@H](CCCNC(=N)N)NC(=O)[C@@H]1CCCN1C(=O)[C@H](N)Cc1ccccc1)C(=O)N1CCC[C@H]1C(=O)N[C@@H](CCC(=O)O)C(=O)N[C@@H](CCC(=O)O)C(=O)N[C@@H](Cc1ccc(O)cc1)C(=O)N[C@@H](CC(C)C)C(=O)O [Hirulog-19] | resistant to thrombin cleavage | < 0.00017 | effective inhibition | – |
| CC[C@H](C)[C@H](NC(=O)[C@H](CCC(=O)O)NC(=O)[C@H](CCC(=O)O)NC(=O)[C@H](Cc1ccccc1)NC(=O)[C@H](CC(=O)O)NC(=O)CNC(=O)[C@H](CC(N)=O)NC(=O)CNC(=O)CNC(=O)CNC(=O)CNC(=O)[C@@H](NC(=O)C[C@H](CCCNC(=N)N)NC(=O)[C@@H]1CCCN1C(=O)[C@H](N)Cc1ccccc1)C(C)C)C(=O)N1CCC[C@H]1C(=O)N[C@@H](CCC(=O)O)C(=O)N[C@@H](CCC(=O)O)C(=O)N[C@@H](Cc1ccc(O)cc1)C(=O)N[C@@H](CC(C)C)C(=O)O [Hirulog-18c] | resistant to thrombin cleavage | < 0.00017 | – | – |
| CC[C@H](C)[C@H](NC(=O)[C@H](CCC(=O)O)NC(=O)[C@H](CCC(=O)O)NC(=O)[C@H](Cc1ccccc1)NC(=O)[C@H](CC(=O)O)NC(=O)CNC(=O)[C@H](CC(N)=O)NC(=O)CNC(=O)CNC(=O)CNC(=O)CNC(=O)[C@@H]1CCCN1C(=O)C[C@H](CCCNC(=N)N)NC(=O)[C@@H]1CCCN1C(=O)[C@H](N)Cc1ccccc1)C(=O)N1CCC[C@H]1C(=O)N[C@@H](CCC(=O)O)C(=O)N[C@@H](CCC(=O)O)C(=O)N[C@@H](Cc1ccc(O)cc1)C(=O)N[C@@H](CC(C)C)C(=O)O [Hirulog-18b] | resistant to thrombin cleavage | < 0.00017 | – | – |
| N=C(N)NCCC[C@H](NC(=O)[C@@H]1CCCN1C(=O)[C@H](N)Cc1ccccc1)C(=O)N1CCC[C@H]1C(=O)NCC(=O)O [pentapeptide, (D-Phe)-Pro-Arg-Pro-Gly, reference compound] (H-[dF]PRPG-OH) | – | – | – | no significant effect |
